The target of this assay is T1, FAS (human (endogenous in HT29)), P25445.
T1 chain: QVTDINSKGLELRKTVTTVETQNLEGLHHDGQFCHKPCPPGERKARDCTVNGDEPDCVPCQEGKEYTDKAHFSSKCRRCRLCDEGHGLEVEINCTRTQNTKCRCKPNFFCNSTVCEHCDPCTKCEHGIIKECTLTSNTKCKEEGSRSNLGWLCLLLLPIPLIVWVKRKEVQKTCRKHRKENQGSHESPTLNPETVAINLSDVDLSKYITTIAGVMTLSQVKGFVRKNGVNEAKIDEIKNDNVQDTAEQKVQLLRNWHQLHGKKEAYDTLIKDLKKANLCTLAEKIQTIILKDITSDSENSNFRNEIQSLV
Nature of the assay: co-IP; FAS immunocomplex from whole cell lysate of crocetin-treated HT29 cells purified with anti-FAS antibody and protein A-Sepharose beads; immunoblotted with anti-FADD antibody. Conditions: remark: other sources report otherwise. Background: Immunoblotting shows a protein as a band on a membrane.

No constants are given. Whether binding was seen depends on the method and setting. Binding seen in cells or lysates may run through a third protein. Some entries that bind do so weakly or less than the wild type.

B1: FAS-associated death domain protein (FADD), Q13158 1-208 (protein)
chain: MDPFLVLLHSVSSSLSSSELTELKFLCLGRVGKRKLERVQSGLDLFSMLLEQNDLEPGHTELLRELLASLRRHDLLRRVDDFEAGAAAGAAPGEEDLCAAFNVICDNVGKDWRRLARQLKVSDTKIDSIEDRYPRNLTERVRESLRIWKNTEKENATVAHLVGALRSCQMNLVADLVQEVQQARDLQNRSGAMSPMSWNSDASTSEAS
In the case of B1, the binding entry was “binds”.

The values above are taken from article PMC5020693.
